# Library screen at single concentrations

The chains behind the UniProt entries cited, without tags or fusion partners. Residues count along the entry.
UniProt P9WPC5, whole entry: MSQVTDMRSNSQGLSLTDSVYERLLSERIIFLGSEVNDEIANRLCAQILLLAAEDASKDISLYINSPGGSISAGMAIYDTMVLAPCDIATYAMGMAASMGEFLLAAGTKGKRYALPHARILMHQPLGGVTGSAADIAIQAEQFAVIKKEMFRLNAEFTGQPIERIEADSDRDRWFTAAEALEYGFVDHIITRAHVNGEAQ
UniProt P9WPC3, whole entry partner: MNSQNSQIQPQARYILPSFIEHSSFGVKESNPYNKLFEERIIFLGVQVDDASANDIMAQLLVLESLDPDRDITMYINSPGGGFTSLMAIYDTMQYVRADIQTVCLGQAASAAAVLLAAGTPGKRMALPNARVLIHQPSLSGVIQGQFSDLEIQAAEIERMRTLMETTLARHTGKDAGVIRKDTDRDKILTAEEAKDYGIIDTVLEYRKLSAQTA
UniProt P9WFT3, whole entry: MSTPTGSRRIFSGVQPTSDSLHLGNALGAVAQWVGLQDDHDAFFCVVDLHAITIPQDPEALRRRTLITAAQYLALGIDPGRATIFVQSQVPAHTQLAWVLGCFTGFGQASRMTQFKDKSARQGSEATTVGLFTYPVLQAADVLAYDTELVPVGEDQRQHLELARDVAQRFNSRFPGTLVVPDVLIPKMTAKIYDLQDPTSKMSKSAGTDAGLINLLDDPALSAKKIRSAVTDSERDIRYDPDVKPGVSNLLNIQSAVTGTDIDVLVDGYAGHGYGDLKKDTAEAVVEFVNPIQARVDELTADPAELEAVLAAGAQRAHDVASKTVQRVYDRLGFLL
UniProt I6X8D2, whole entry: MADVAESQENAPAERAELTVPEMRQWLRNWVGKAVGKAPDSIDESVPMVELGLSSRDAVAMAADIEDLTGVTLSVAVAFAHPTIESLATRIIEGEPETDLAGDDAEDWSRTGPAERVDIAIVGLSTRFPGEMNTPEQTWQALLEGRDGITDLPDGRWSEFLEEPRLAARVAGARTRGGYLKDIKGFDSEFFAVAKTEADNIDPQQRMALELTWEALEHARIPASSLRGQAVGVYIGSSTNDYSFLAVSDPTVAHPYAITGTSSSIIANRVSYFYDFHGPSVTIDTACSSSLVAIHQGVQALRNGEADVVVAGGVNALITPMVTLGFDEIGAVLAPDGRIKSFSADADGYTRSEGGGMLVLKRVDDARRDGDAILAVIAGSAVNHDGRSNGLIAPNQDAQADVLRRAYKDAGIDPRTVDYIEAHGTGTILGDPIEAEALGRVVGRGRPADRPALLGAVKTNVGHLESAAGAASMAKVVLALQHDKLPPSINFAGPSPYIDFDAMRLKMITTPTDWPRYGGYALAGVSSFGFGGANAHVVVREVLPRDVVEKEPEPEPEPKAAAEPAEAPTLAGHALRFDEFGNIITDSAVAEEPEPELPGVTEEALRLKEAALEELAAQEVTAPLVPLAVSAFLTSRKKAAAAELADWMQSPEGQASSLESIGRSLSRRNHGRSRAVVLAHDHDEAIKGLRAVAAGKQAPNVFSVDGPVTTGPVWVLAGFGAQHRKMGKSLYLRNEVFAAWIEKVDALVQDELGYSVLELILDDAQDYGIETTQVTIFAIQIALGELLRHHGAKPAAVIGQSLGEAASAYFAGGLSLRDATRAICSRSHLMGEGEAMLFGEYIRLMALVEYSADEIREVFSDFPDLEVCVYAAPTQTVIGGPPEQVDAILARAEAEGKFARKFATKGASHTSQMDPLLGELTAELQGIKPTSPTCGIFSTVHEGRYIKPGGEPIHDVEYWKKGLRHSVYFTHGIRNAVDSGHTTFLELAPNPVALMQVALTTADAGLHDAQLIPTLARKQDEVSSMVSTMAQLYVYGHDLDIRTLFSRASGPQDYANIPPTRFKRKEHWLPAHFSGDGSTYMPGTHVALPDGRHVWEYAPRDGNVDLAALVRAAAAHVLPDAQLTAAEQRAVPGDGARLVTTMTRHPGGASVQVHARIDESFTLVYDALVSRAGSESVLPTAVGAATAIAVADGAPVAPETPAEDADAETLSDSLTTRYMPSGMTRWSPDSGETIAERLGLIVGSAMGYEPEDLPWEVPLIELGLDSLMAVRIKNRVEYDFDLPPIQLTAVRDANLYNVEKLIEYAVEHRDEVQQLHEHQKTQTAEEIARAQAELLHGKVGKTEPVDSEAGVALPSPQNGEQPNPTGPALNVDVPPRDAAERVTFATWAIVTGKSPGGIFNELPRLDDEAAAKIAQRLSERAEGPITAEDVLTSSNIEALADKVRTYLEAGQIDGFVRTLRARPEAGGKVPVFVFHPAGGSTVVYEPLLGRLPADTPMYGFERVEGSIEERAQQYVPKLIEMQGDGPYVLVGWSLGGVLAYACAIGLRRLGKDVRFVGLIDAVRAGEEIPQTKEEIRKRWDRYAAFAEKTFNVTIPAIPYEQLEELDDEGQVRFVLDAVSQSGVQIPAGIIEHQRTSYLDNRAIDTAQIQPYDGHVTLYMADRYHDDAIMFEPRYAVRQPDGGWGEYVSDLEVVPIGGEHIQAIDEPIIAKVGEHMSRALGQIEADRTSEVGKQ
UniProt Q8IDJ8, 1-583: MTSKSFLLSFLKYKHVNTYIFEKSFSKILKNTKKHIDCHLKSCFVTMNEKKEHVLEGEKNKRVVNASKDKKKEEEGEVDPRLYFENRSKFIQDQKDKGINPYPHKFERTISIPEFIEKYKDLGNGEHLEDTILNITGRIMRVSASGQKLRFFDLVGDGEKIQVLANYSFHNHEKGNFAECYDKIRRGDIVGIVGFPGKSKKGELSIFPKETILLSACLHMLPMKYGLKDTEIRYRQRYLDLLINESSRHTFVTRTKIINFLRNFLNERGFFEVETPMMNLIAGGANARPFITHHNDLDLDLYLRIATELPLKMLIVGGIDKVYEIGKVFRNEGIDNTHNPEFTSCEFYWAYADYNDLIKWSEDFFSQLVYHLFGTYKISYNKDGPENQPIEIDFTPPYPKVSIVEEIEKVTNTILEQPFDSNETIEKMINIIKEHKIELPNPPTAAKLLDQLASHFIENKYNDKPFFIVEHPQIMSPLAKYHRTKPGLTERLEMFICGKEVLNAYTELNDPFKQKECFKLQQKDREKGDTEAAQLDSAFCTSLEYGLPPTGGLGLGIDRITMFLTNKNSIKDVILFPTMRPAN

Data taken from ChEMBL document CHEMBL3988442, “University of Dundee, Small-Polar-MMV Screening Library” (2021).

A: 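ClpP1P2, Mycobacterium tuberculosis (UniProt P9WPC5 and UniProt P9WPC3). Protease assay of ClpP1P2, read by the AMC dye that it sets free. Tested at 50 µM. Direction is inferred from only a few compounds that gave an IC50; most scored high, so higher reads as stronger inhibition. Most other retested compounds had strongly negative values. About 69,000 compounds were tested under these conditions; 0.015% (about 10) showed 50% or more at least once.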
B: 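Tryptophan-tRNA ligase, Mycobacterium tuberculosis (UniProt P9WFT3). Enzyme assay of tryptophanyl-tRNA synthetase; the read-out is not stated. Tested at 10 µM. Direction is not recorded; retested compounds ran higher, which suggests that high means inhibition. Of about 65,000 compounds tested this way, about 64 (0.098%) reached 50% or more in at least one test.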
C: 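Polyketide synthase Pks13, Mycobacterium tuberculosis (UniProt I6X8D2). Enzyme assay of the thioesterase domain of polyketide synthase 13; the read-out is not stated. Tested at 30 µM. The record gives no direction; the compounds picked for IC50 retests had high values, so higher reads as stronger inhibition. Of about 67,000 compounds tested this way, about 300 (0.46%) reached 50% or more in at least one test.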
D: 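Lysine-tRNA ligase, Plasmodium falciparum 3D7 (UniProt Q8IDJ8). Enzyme assay of the cytosolic lysyl-tRNA synthetase in 384-well plates, read by luminescence. Compounds at 30 µM. Higher reads as stronger inhibition, judged from the few compounds that gave an IC50. About 69,000 compounds were tested under these conditions; 0.071% (about 49) showed 50% or more at least once.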

Each number is a percent effect as filed.
The controls that fix the scale are not given in the record; negative values are as filed.
The compounds are a random part of those screened.
A dash means the value is not listed here; it may have been measured.

| compound | A | B | C | D |
|---|---|---|---|---|
| `CC(C)C(C(=O)N1CCCN(c2cccnn2)CC1)n1cncn1` (configuration not stated) | -7.518 | -5.404 | 1.528 | 3.48 |
| `CC(C)(CN1CCCC1)CN1CCC(Cn2cc(C3CC3)nn2)CC1` | -26.02 | -1.013 | -1.504 | 0.8891 |
| `CS(=O)(=O)Nc1cnn(Cc2cccc(Cl)c2)c1` | -15.26 | 1.618 | -0.2095 | -1.441 |
| `Cc1nc(C(=O)NS(=O)(=O)c2cccc(C#N)c2)cs1` | -9.289 | 6.268 | -13.72 | -3.887 |
| `Cc1ccc(CC2COCCN(S(C)(=O)=O)C2)nc1` (configuration not stated) | -11.83 | 14.31 | -13 | -2.236 |
| `Oc1nc(N2CCCC2)nc2c1CCN(Cc1cccnc1)CC2` | -3 | - | -14.62 | 0.7207 |
| `Cc1ccc(C(=O)Nc2ccccc2N2CCCC2)n1C` | 10.57 | -1.608 | -3.229 | -4.778 |
| `NC(=O)NC1CCN(Cc2ccc3c(c2)CCC3)CC1` | -13.5 | -2.056 | -0.1646 | -1.247 |
| `CC(C(=O)NCCOc1cccc(Cl)c1)n1cncn1` (configuration not stated) | 17.59 | -1.81 | -40.03 | 8.829 |
| `CCOC(C)c1nccn1Cc1c(C)noc1C` (configuration not stated) | -3.826 | -0.0809 | -13.67 | 3.089 |
| `C1CCC(c2nnc3sc(C4CCOC4)nn23)C1` (configuration not stated) | 12.2 | -0.9397 | -26.29 | 3.446 |
| `CC(C)Cc1noc(CN2CCCN(C(=O)c3ccccc3Cl)CC2)n1` | -15.36 | -5.117 | 10.45 | 4.292 |
| `CCCN(CCC)C(=O)Cn1c(SC)nc2ccsc2c1=O` | -8.959 | 3.23 | -24.71 | 2.76 |
| `CCn1ccc(CN(C)C(=O)CSc2nnc(N)s2)n1` | -5.537 | -4.408 | -16.28 | 2.423 |
| `CCc1nc(CN(C)C2CCN(Cc3cnc(C)cn3)C2)no1` (configuration not stated) | 13.45 | 2.754 | 39.95 | -1.979 |
| `Cc1ccc(CNc2n[nH]c(C)n2)cc1` | 1.105 | -2.16 | -2.885 | -1.838 |
| `Cc1ccc(N2CCc3sc(C(=O)NCCN4CCCC4)cc32)nn1` | -11.1 | -0.4537 | 7.324 | -2.246 |
| `CC(=O)N1CCCN(C(C(=O)O)c2cccc(C)c2C)CC1` (configuration not stated) | -10.54 | 0.2987 | -46.6 | 5.482 |
| `Cc1noc(C)c1CN1CCN(Cc2nc(C3CC3)no2)CC1` | -0.1299 | 2.004 | -6.792 | 4.372 |
| `O=C(C1CCOCC1)N1CCC2(CCC(C(=O)N3CCCC3)O2)CC1` (configuration not stated) | 5.94 | -3.153 | -26.69 | 1.4 |
| `CCc1cc(CN(C)C(=O)CN2CC(c3ccccc3)CC2=O)on1` (configuration not stated) | -11.79 | 0.8189 | -20.65 | 5.322 |
| `COCCc1noc(CNCC2CCCN2c2cccnn2)n1` (configuration not stated) | 17.54 | 3.518 | -23.89 | 6.005 |
| `CCN1CC2(CCN(CCOCCO)CC2)CC(c2ccccc2)C1=O` (configuration not stated) | 4.532 | 0 | -7.856 | -2.002 |
| `Cc1nc2cc(=O)[nH]n2c(C)c1CC(=O)Nc1ccc2ccccc2n1` | 10.94 | -0.1572 | 15.94 | 4.62 |
| `CCc1nnc(Nc2cccc(C3CCN(C(C)=O)CC3)n2)s1` | 4.299 | - | 86.92 | 2.153 |
| `COc1ccc(F)cc1S(=O)(=O)NCC(O)c1sccc1C` (configuration not stated) | 7.644 | -7.067 | -36.79 | 4.176 |
| `Cc1cccc(C2(CNC(=O)CCNS(C)(=O)=O)CCCC2)c1` | 0.2115 | 2.754 | -21.75 | 11.65 |
| `COc1ccc(NC(=O)Cn2c(=O)nc(N)c3cc(C)sc32)cc1` | -15.21 | 1.4 | -1.588 | 7.239 |
| `COCCN1CCC(c2nc3ccc(NC4CCC4)cn3n2)CC1` | 3.491 | - | -4.277 | 4.115 |
| `CCCN(CCC)C(=O)CN(C)C1CCc2ccccc21` (configuration not stated) | -17.7 | 4.206 | -23.06 | -1.529 |
| `Cn1nc(C2CCN(C(=O)Cc3cccc(F)c3)CC2)c2cccnc21` | 1.023 | -0.9197 | -39.1 | 3.123 |
| `CCN1CCN(c2ncc3c(n2)CN(c2cnn(CC)c2)C3=O)CC1` | -7.39 | 1.684 | -9.363 | -0.7961 |
| `CSCC(=O)N[C@H]1CN(Cc2c(C)noc2C)C[C@@H]1C(C)C` | 2.45 | 2.725 | 5.74 | 0.9601 |
| `CCc1nsc(NC2CCOC3(CCCC3)C2)n1` (configuration not stated) | -1.39 | -2.183 | -24.13 | 5.848 |
| `COCCN(C)CC(=O)N1C[C@H]2CC[C@@H]1CN(C(=O)c1ccncc1)C2` | 5.302 | -2.487 | -9.168 | 0.8454 |
| `CCS(=O)(=O)N1CCC(c2cc3n(n2)[C@@H](C(F)(F)F)C[C@@H](C)N3)CC1` | 1.578 | 2.425 | -47.73 | 4.363 |
| `O=C(c1ccc2c(c1)OCO2)N1CCC[C@]2(C[C@H](OCC3CC3)CO2)C1` | 4.238 | 1.762 | -26.55 | 0.1549 |
| `CC(C)(C)c1n[nH]c(C2CN(C(=O)CCc3ccco3)CCO2)n1` (configuration not stated) | -30.6 | -2.496 | -10.77 | -0.507 |
| `Nc1ncc(CN2C[C@H](C3CC3)[C@@H](N)C2)cn1` | -4.375 | -4.054 | -21.87 | 2.447 |
| `Cc1ccccc1C1(CNC(=O)c2ccc(S(C)(=O)=O)cc2)CC1` | 4.604 | -3.511 | 0.6615 | 5.194 |
| `Cc1ccc(C(=O)N2CCO[C@H]3[C@H](OCCN(C)C)CC[C@@H]32)cn1` | -12.48 | -6.806 | -9.327 | 2.547 |
| `COCCOCC(=O)Nc1ccccc1F` | -1.509 | 1.761 | 0.9737 | 4.756 |

3 of the entries, repeated:

Oc1nc(N2CCCC2)nc2c1CCN(Cc1cccnc1)CC2 gave A: -3%; C: -14.62%; D: 0.7207%.
CCn1ccc(CN(C)C(=O)CSc2nnc(N)s2)n1 gave A: -5.537%; B: -4.408%; C: -16.28%; D: 2.423%.
COCCN1CCC(c2nc3ccc(NC4CCC4)cn3n2)CC1 gave A: 3.491%; C: -4.277%; D: 4.115%.